{"source": "patent US10512652B2", "about": "“Use of cymanquine compounds as antimalarial agents” (priority 2015, dated 2019)", "origin": "cited, not measured here", "test_system": "P. falciparum strain D10ydhod", "details": "D10ydhod vs parental D10, fold higher; cited from earlier work", "note": "At least one compound was matched to its structure with a doubt left."}
{"smiles": "O=C1C(O)=C([C@H]2CC[C@H](c3ccc(Cl)cc3)CC2)C(=O)c2ccccc21", "note": "[atovaquone]", "values": [{"measurement": "EC50 in strain D10ydhod as compared to the parental D10 parasite", "value": "> 2000", "unit": "fold"}]}
